Experimental data as given in the supplement of paper PMC10849652.
This is one part of the list.

Chains of the proteins cited; added tags and fusions are not shown. Lines headed by an entry give the natural chain unless they say otherwise; changes in a name come on top.
UniProt Q9ULX6: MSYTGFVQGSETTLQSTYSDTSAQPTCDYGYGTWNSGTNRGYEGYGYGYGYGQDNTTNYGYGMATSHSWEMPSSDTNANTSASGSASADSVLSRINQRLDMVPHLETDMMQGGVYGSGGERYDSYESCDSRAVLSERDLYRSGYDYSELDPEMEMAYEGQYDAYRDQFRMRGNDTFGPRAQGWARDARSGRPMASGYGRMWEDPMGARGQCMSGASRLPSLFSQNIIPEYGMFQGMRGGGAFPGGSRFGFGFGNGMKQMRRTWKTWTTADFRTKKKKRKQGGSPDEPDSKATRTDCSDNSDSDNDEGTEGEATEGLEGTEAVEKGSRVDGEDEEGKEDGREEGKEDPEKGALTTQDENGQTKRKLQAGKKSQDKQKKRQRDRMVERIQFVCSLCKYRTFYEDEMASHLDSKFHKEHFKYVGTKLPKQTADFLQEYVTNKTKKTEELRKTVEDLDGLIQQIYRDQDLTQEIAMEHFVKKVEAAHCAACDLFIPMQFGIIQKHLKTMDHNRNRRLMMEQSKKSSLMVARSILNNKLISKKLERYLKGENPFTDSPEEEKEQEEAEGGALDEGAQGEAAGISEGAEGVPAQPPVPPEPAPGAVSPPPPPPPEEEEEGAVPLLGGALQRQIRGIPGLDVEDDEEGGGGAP
UniProt Q9H2P0: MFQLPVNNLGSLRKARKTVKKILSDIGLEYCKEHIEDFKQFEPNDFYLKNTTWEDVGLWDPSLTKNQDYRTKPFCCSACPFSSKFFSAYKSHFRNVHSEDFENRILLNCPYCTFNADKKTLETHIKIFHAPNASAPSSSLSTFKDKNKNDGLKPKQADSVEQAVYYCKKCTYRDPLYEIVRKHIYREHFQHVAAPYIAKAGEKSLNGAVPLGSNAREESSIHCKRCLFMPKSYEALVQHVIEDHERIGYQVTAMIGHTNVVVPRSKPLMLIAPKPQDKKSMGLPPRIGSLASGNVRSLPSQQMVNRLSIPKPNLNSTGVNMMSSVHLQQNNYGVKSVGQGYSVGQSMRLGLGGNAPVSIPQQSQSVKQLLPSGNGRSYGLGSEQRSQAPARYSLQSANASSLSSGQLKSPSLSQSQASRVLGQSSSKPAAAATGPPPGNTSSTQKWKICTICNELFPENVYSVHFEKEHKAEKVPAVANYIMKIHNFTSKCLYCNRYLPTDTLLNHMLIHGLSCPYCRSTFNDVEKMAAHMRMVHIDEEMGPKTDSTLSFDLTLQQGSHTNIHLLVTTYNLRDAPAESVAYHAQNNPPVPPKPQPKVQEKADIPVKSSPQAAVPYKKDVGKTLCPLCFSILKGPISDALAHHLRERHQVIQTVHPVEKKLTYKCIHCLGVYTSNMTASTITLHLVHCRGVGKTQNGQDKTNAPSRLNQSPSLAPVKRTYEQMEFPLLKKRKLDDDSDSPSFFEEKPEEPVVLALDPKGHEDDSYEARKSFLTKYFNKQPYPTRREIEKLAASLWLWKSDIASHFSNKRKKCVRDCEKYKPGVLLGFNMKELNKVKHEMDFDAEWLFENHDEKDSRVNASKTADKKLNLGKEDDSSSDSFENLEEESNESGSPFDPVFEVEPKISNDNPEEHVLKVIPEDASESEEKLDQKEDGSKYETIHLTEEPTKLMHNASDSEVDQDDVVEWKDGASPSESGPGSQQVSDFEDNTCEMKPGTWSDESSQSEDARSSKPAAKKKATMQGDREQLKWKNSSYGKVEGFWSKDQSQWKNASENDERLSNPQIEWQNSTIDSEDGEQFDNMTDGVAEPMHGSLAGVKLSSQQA
UniProt Q12904: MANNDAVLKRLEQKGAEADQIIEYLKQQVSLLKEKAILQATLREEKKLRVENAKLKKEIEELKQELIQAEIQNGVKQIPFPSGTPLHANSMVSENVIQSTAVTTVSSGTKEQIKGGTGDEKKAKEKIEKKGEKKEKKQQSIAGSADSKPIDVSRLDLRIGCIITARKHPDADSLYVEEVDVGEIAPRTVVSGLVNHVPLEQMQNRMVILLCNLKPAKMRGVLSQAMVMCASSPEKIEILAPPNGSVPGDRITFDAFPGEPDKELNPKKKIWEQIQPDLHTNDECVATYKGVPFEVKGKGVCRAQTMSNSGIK
UniProt P52594: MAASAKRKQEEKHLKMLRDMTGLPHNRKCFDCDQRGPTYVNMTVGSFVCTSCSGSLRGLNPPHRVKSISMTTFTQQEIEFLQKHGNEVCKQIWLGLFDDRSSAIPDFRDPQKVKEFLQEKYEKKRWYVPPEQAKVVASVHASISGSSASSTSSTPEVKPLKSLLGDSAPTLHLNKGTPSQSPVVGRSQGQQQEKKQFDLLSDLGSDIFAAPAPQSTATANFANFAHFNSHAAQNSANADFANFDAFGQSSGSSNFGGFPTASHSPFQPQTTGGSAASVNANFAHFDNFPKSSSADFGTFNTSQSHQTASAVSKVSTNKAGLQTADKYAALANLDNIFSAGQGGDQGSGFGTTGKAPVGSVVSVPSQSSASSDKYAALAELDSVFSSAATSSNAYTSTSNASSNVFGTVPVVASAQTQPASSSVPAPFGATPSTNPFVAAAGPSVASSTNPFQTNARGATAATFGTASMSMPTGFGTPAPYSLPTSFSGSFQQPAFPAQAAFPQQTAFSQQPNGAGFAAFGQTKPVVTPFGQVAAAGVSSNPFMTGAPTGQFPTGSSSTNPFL
UniProt O14734: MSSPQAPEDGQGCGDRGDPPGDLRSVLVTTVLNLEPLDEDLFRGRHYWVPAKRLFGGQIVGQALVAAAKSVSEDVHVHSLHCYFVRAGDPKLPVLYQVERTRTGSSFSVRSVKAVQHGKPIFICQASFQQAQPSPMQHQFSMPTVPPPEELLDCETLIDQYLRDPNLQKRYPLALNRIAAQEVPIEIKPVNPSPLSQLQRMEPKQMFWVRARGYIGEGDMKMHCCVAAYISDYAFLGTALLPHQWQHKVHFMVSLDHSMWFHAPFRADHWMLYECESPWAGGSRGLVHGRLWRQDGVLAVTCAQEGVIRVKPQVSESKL
UniProt O60488: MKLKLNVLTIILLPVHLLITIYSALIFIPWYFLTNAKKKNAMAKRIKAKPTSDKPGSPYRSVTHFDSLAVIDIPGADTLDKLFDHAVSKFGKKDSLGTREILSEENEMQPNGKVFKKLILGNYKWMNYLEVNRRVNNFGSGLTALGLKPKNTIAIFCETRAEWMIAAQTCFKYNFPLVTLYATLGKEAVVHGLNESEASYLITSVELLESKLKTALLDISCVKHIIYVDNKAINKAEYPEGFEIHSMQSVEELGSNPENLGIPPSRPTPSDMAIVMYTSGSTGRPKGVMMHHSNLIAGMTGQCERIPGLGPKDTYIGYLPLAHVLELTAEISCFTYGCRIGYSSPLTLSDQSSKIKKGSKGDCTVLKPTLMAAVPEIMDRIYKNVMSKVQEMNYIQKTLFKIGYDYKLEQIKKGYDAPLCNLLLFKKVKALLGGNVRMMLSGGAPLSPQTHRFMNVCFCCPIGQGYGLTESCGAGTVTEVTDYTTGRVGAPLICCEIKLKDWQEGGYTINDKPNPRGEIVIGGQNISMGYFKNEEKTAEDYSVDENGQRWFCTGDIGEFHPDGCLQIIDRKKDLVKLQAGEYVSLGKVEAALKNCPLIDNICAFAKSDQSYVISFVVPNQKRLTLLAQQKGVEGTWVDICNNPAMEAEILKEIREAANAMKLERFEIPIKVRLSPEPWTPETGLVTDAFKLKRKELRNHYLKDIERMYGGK
UniProt O00170: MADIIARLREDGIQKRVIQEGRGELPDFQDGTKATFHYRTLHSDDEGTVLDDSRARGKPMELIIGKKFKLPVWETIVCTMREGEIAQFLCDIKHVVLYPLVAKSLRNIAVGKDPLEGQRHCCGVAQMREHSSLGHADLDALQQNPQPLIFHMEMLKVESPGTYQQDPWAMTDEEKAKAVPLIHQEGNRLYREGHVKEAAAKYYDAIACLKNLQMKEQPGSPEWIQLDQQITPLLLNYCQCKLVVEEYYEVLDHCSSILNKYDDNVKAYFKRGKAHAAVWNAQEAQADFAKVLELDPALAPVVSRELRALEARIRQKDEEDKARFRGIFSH
UniProt Q6RW13: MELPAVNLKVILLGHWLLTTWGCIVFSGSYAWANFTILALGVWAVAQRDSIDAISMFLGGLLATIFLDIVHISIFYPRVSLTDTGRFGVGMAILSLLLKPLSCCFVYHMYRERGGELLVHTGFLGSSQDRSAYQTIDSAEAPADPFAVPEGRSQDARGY
UniProt O43823: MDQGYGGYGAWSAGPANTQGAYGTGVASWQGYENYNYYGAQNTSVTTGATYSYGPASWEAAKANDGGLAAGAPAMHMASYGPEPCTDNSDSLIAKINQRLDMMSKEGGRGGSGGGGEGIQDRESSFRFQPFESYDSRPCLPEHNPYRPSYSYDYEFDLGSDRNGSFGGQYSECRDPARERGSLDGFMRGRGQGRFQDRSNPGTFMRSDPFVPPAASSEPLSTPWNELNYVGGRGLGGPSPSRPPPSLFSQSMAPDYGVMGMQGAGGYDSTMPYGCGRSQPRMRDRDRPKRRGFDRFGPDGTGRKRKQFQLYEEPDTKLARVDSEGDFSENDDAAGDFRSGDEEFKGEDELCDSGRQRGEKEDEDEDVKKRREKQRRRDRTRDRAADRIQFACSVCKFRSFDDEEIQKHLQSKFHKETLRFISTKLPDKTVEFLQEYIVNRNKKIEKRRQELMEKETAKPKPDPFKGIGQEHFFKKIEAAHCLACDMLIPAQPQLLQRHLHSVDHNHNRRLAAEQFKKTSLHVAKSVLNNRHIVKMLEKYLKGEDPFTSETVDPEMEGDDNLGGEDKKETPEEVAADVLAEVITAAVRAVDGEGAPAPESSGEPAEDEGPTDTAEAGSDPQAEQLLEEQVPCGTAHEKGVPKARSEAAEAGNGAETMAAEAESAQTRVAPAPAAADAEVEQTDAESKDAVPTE
UniProt Q6DHV7: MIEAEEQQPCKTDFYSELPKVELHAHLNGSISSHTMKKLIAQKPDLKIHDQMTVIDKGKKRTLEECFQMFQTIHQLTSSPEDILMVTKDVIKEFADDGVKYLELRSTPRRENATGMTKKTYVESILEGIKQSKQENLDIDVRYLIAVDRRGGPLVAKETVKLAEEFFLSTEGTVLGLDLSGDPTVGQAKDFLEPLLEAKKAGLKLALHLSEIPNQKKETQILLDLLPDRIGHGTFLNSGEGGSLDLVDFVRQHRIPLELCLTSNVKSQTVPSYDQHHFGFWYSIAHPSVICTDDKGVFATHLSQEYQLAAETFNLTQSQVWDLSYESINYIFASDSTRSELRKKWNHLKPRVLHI
UniProt Q9GZN1, whole entry, looked up: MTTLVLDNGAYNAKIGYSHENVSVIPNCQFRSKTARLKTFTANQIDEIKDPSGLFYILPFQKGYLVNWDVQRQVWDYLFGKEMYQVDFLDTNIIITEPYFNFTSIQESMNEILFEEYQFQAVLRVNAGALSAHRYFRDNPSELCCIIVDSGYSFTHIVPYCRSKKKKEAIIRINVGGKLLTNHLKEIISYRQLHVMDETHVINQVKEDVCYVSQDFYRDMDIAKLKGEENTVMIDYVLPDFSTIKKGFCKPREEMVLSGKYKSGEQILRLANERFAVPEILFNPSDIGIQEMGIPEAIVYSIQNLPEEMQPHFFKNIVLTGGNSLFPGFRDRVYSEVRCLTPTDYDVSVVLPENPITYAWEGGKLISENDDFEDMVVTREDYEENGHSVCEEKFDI
UniProt Q96BJ3: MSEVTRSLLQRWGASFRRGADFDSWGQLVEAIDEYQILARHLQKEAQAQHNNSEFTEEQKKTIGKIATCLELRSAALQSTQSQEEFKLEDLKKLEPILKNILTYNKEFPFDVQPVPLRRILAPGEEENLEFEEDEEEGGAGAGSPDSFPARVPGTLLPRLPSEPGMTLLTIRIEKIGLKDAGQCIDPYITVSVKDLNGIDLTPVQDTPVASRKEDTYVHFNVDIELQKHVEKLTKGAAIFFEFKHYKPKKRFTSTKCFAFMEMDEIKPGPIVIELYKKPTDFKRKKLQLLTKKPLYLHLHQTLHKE
UniProt O95433, whole entry, looked up: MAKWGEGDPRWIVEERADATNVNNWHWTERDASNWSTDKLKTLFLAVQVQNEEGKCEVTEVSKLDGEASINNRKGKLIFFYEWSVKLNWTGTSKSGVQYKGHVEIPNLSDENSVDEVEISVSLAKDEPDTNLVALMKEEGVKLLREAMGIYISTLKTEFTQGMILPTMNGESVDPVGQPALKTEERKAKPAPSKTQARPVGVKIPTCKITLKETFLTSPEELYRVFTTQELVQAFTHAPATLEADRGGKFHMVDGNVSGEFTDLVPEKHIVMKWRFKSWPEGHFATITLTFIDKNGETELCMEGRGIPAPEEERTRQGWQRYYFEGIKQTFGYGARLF
UniProt P27144: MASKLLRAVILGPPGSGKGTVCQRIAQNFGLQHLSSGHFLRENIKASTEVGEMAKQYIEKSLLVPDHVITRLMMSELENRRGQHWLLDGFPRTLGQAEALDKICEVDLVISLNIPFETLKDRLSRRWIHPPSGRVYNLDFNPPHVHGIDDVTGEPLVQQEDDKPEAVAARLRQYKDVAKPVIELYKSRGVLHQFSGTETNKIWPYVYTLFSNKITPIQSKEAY

Key:
Experiment in all cases: log2 fold change, soluble protein after heating vs DMSO (PISA); higher = thermal stabilisation; K562 lysate, 10 uM; active = over 0.2 and 3.5 SD of the protein, either way, in both replicates (recomputed)
alvocidib = compound: CN1CC[C@H](c2c(O)cc(O)c3c(=O)cc(-c4ccccc4Cl)oc23)[C@H](O)C1 [alvocidib]
In short: (§1)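 Quantification was by TMTpro 16plex LC-MS/MS with equalised channel sums, applied to the supernatant after 21,000xg for 90 min. Samples were crude K562 extract at 1 mg/mL protein in PBS pH 7.4 with 1 mM MgCl2, treated with 10 μM compound for 30 min, heated for 3 min across 48°C-58°C, pooled and brought to 0.5% NP-40 at 4°C. Values are log-two fold changes in thermal stability relative to solvent controls, from duplicates.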

Tubastatin A = compound: CN1CCc2c(c3ccccc3n2Cc2ccc(C(=O)NO)cc2)C1 [Tubastatin A]
In short: as §1

[1] = compound: CNC(=O)C1=CC=CC=C1NC2=NC(=NC=C2Cl)NC3=C(C=C(C=C3)N4CCOCC4)OC
In short: as §1

defactinib = compound: CNC(=O)c1ccc(Nc2ncc(C(F)(F)F)c(NCc3nccnc3N(C)S(C)(=O)=O)n2)cc1 [defactinib]
In short: as §1

[2] = compound: CNc1nc(-c2ccc3c(N)n[nH]c3c2)cc(N2C[C@@H](C(=O)NC3CCCCC3)CC[C@H]2C)n1
In short: as §1

encorafenib = compound: COC(=O)N[C@@H](C)CNc1nccc(-c2cn(C(C)C)nc2-c2cc(Cl)cc(NS(C)(=O)=O)c2F)n1 [encorafenib]
In short: as §1

[3] = compound: COC(=O)[C@H](CCSC)NC(=O)C1=C(C=C(C=C1)NC[C@H](CS)N)C2=CC=CC=C2
In short: as §1

alisertib = compound: COc1cc(Nc2ncc3c(n2)-c2ccc(Cl)cc2C(c2c(F)cccc2OC)=NC3)ccc1C(=O)O [alisertib]
In short: as §1

[4] = compound: COc1cc2nc(-c3cc(F)ccc3O)nc(N[C@@H]3CNC[C@H]3C(C)(C)O)c2cc1OC
In short: as §1

gefitinib = compound: COc1cc2ncnc(Nc3ccc(F)c(Cl)c3)c2cc1OCCCN1CCOCC1 [gefitinib]
In short: as §1

Measured: log2 fold change

ACTG1 (UniProt I3L4N8)
inactive: alvocidib 0.089 | Tubastatin A 0.119 | [1] 0.046 | defactinib -0.142 | [2] -0.005 | encorafenib 0.209 | [3] 0 | alisertib -0.198 | [4] -0.003 | gefitinib -0.115

AFDN (UniProt J3KN01)
inactive: alvocidib -0.053 | Tubastatin A -0.036 | [1] -0.007 | defactinib -0.061 | [2] -0.052 | encorafenib 0.061 | [3] -0.03 | alisertib 0.05 | [4] 0.017 | gefitinib -0.024

AKAP8L (UniProt Q9ULX6)
inactive: alvocidib -0.003 | Tubastatin A -0.183 | [1] 0.008 | defactinib 0.003 | [2] -0.109 | encorafenib 0.059 | [3] -0.032 | alisertib 0.043 | [4] 0.011 | gefitinib 0.009

AK3 (UniProt Q9UIJ7)
inactive: alvocidib -0.002 | Tubastatin A 0.025 | [1] -0.017 | defactinib 0.003 | [2] -0.018 | encorafenib -0.016 | [3] 0.023 | alisertib -0.012 | [4] -0.001 | gefitinib -0.01

ADNP (UniProt Q9H2P0)
inactive: alvocidib -0.053 | Tubastatin A -0.033 | [1] 0.015 | defactinib -0.022 | [2] 0.024 | encorafenib 0.018 | [3] 0.138 | alisertib -0.028 | [4] 0.018 | gefitinib -0.024

ADPGK (UniProt Q9BRR6)
inactive: alvocidib -0.008 | Tubastatin A -0.001 | [1] 0.097 | defactinib 0.015 | [2] -0.09 | encorafenib 0.033 | [3] -0.025 | alisertib -0.026 | [4] 0.085 | gefitinib 0.041

AIMP1 isoform 2 (UniProt Q12904)
inactive: alvocidib 0.056 | Tubastatin A -0.118 | [1] 0.01 | defactinib 0.018 | [2] 0.028 | encorafenib -0.005 | [3] 0.11 | alisertib 0.004 | [4] -0.009 | gefitinib -0.029

AGFG1 isoform 4 (UniProt P52594)
inactive: alvocidib -0.017 | Tubastatin A 0.03 | [1] -0.024 | defactinib 0.035 | [2] 0.032 | encorafenib 0.041 | [3] -0.022 | alisertib -0.017 | [4] 0.004 | gefitinib -0.038

ACOT8 (UniProt O14734)
inactive: alvocidib -0.047 | Tubastatin A 0.043 | [1] -0.025 | defactinib -0.024 | [2] 0.036 | encorafenib 0.005 | [3] -0.203 | alisertib 0.014 | [4] 0.007 | gefitinib -0.07

ACSL4 (UniProt O60488)
inactive: alvocidib 0.023 | Tubastatin A -0.06 | [1] 0.047 | defactinib 0.054 | [2] -0.034 | encorafenib 0.003 | [3] 0.073 | alisertib -0.017 | [4] 0.019 | gefitinib 0.014

AKAP9 (UniProt Q99996)
inactive: alvocidib -0.015 | Tubastatin A -0.04 | [1] -0.019 | defactinib -0.063 | [2] 0.018 | encorafenib 0.03 | [3] 0.031 | alisertib 0.003 | [4] 0.032 | gefitinib 0.015

AIP (UniProt O00170)
inactive: alvocidib 0.164 | Tubastatin A 0.003 | [1] 0.037 | defactinib 0.004 | [2] 0.015 | encorafenib -0.008 | [3] 0.043 | alisertib -0.039 | [4] -0.002 | gefitinib -0.032

ACP2 (UniProt P11117)
inactive: alvocidib -0.027 | Tubastatin A 0.015 | [1] 0.051 | defactinib 0.023 | [2] 0 | encorafenib 0.058 | [3] -0.037 | alisertib -0.019 | [4] 0.055 | gefitinib 0.001

ACTR1A (UniProt P61163)
inactive: alvocidib -0.034 | Tubastatin A -0.006 | [1] -0.003 | defactinib -0.014 | [2] 0.008 | encorafenib -0.027 | [3] 0.04 | alisertib -0.008 | [4] -0.01 | gefitinib 0

ACTR10 (UniProt Q9NZ32)
inactive: alvocidib -0.041 | Tubastatin A 0.003 | [1] 0.012 | defactinib -0.033 | [2] 0.014 | encorafenib 0.024 | [3] -0.04 | alisertib 0.01 | [4] 0 | gefitinib 0.082

AGRN (UniProt O00468)
inactive: alvocidib -0.053 | Tubastatin A -0.012 | [1] 0.007 | defactinib -0.041 | [2] -0.163 | encorafenib -0.021 | [3] 0.073 | alisertib -0.138 | [4] -0.135 | gefitinib -0.078

ACTR3B (UniProt Q9P1U1)
inactive: alvocidib -0.012 | Tubastatin A 0 | [1] -0.001 | defactinib 0.05 | [2] 0.049 | encorafenib -0.026 | [3] -0.047 | alisertib -0.007 | [4] -0.002 | gefitinib 0.009

AKAP1 (UniProt Q92667)
inactive: alvocidib 0.003 | Tubastatin A -0.034 | [1] 0.006 | defactinib 0.011 | [2] 0.013 | encorafenib -0.033 | [3] 0.086 | alisertib 0.004 | [4] 0.032 | gefitinib 0.018

AGTRAP (UniProt Q6RW13)
inactive: alvocidib -0.079 | Tubastatin A -0.06 | [1] -0.03 | defactinib -0.137 | [2] 0.109 | encorafenib 0.075 | [3] -0.087 | alisertib 0.032 | [4] -0.019 | gefitinib 0.045

AKAP8 (UniProt O43823)
inactive: alvocidib -0.031 | Tubastatin A -0.038 | [1] -0.059 | defactinib -0.001 | [2] -0.073 | encorafenib 0.072 | [3] -0.098 | alisertib 0.02 | [4] 0.058 | gefitinib -0.042

Taken from the listing (seven entries):
ACTR1A (UniProt P61163)
inactive: alvocidib -0.034 | Tubastatin A -0.006 | [1] -0.003 | defactinib -0.014 | [2] 0.008 | encorafenib -0.027 | [3] 0.04 | alisertib -0.008 | [4] -0.01 | gefitinib 0

ACTR10 (UniProt Q9NZ32)
inactive: alvocidib -0.041 | Tubastatin A 0.003 | [1] 0.012 | defactinib -0.033 | [2] 0.014 | encorafenib 0.024 | [3] -0.04 | alisertib 0.01 | [4] 0 | gefitinib 0.082

AGRN (UniProt O00468)
inactive: alvocidib -0.053 | Tubastatin A -0.012 | [1] 0.007 | defactinib -0.041 | [2] -0.163 | encorafenib -0.021 | [3] 0.073 | alisertib -0.138 | [4] -0.135 | gefitinib -0.078

ACTR3B (UniProt Q9P1U1)
inactive: alvocidib -0.012 | Tubastatin A 0 | [1] -0.001 | defactinib 0.05 | [2] 0.049 | encorafenib -0.026 | [3] -0.047 | alisertib -0.007 | [4] -0.002 | gefitinib 0.009

AKAP1 (UniProt Q92667)
inactive: alvocidib 0.003 | Tubastatin A -0.034 | [1] 0.006 | defactinib 0.011 | [2] 0.013 | encorafenib -0.033 | [3] 0.086 | alisertib 0.004 | [4] 0.032 | gefitinib 0.018

AGTRAP (UniProt Q6RW13)
inactive: alvocidib -0.079 | Tubastatin A -0.06 | [1] -0.03 | defactinib -0.137 | [2] 0.109 | encorafenib 0.075 | [3] -0.087 | alisertib 0.032 | [4] -0.019 | gefitinib 0.045

AKAP8 (UniProt O43823)
inactive: alvocidib -0.031 | Tubastatin A -0.038 | [1] -0.059 | defactinib -0.001 | [2] -0.073 | encorafenib 0.072 | [3] -0.098 | alisertib 0.02 | [4] 0.058 | gefitinib -0.042

Further results:

ADAL (UniProt Q6DHV7)
inactive: alvocidib 0.046 | Tubastatin A 0.064 | [1] 0.001 | defactinib 0.012 | [2] 0.028 | encorafenib 0.011 | [3] -0.04 | alisertib -0.025 | [4] -0.002 | gefitinib -0.007

AIFM1 (UniProt O95831)
inactive: alvocidib 0.002 | Tubastatin A 0.04 | [1] 0.01 | defactinib -0.033 | [2] 0.028 | encorafenib -0.021 | [3] -0.02 | alisertib -0.013 | [4] -0.011 | gefitinib 0.007

AHNAK (UniProt Q09666)
inactive: alvocidib -0.02 | Tubastatin A 0.064 | [1] 0.012 | defactinib -0.007 | [2] 0.058 | encorafenib 0 | [3] -0.03 | alisertib 0.005 | [4] 0.026 | gefitinib -0.053

ACTR6 (UniProt Q9GZN1)
inactive: alvocidib -0.064 | Tubastatin A -0.036 | [1] -0.074 | defactinib 0.072 | [2] -0.007 | encorafenib 0.022 | [3] 0.109 | alisertib 0.112 | [4] 0.047 | gefitinib 0.259

AIDA (UniProt Q96BJ3)
inactive: alvocidib -0.011 | Tubastatin A 0.016 | [1] -0.022 | defactinib -0.02 | [2] 0.033 | encorafenib 0.001 | [3] 0 | alisertib 0.034 | [4] 0.008 | gefitinib 0.088

ADAT2 (UniProt Q7Z6V5)
inactive: alvocidib -0.037 | Tubastatin A -0.01 | [1] 0.013 | defactinib 0.012 | [2] 0.031 | encorafenib -0.062 | [3] -0.056 | alisertib 0.045 | [4] -0.026 | gefitinib 0.03

AHSA1 (UniProt O95433)
inactive: alvocidib 0.004 | Tubastatin A 0.036 | [1] 0.005 | defactinib -0.026 | [2] 0.009 | encorafenib -0.021 | [3] -0.008 | alisertib -0.003 | [4] 0.038 | gefitinib 0.004

ACTB, A0A2R8Y793
inactive: alvocidib 0.023 | Tubastatin A -0.038 | [1] 0.012 | defactinib 0.011 | [2] 0.024 | encorafenib -0.033 | [3] 0.02 | alisertib 0.007 | [4] 0.005 | gefitinib -0.039

AGO3 (UniProt Q9H9G7)
inactive: alvocidib -0.005 | Tubastatin A 0.046 | [1] -0.011 | defactinib -0.01 | [2] 0.052 | encorafenib 0.012 | [3] -0.024 | alisertib -0.016 | [4] 0.021 | gefitinib 0.043

AK4 (UniProt P27144)
inactive: alvocidib 0.025 | Tubastatin A 0.036 | [1] -0.008 | defactinib 0.003 | [2] 0.009 | encorafenib 0.006 | [3] -0.07 | alisertib 0.026 | [4] -0.034 | gefitinib -0.043
